Data source: PubChem BioAssay AID1053209 (Peter MacCallum Cancer Centre, 2014)

Screen: 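Gene losses that combine with doxorubicin to kill mouse bone cancer cells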 (follow-up of hits)
Cell system: mouse primary osteosarcoma cells
Reagent: single siRNA against mouse genes, 25 nM (text also states 40 nM)
Time to read-out: about 120 h (48 h before drug, then 72 h with drug)
Treatment: doxorubicin 100 nM (about IC30-40), added 48 h after transfection, for 72 h
Read-out: 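ATP-based luminescent viability, with or without doxorubicin, relative to non-targeting control NT1, mean of two replicates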
Scale: viability with doxorubicin, vs NT1: higher = more viable cells under doxorubicin; viability without drug, vs NT1: higher = more viable cells without drug
Call rule: 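Counted as active (class LC dox) if viability falls to 0.7 of NT1 or below under doxorubicin but stays within 0.7 to 1.1 without drug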
This is one part, drawn at random, of about 1,580 deposited reagents. Of all reagents, 207 (13%) are marked active. 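Rows are single siRNAs; four siRNAs per gene were tested, a gene counting as confirmed only when at least two agree.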 The numbers tell different reagents against one gene apart. Not all columns of the deposit are shown. Reagent sequences are not shown.

Dhx15 #1: combined effect class = normal viability with and without drug; viability with doxorubicin, vs NT1 = 0.95; viability without drug, vs NT1 = 0.93; Outcome = inactive
Dhx15 #2: combined effect class = normal viability with and without drug; viability with doxorubicin, vs NT1 = 0.96; viability without drug, vs NT1 = 0.92; Outcome = inactive
Dhx15 #3: combined effect class = normal viability with and without drug; viability with doxorubicin, vs NT1 = 0.85; viability without drug, vs NT1 = 0.99; Outcome = inactive
Dhx15 #4: combined effect class = normal viability with and without drug; viability with doxorubicin, vs NT1 = 0.76; viability without drug, vs NT1 = 0.95; Outcome = inactive
Ncbp2 #1: combined effect class = normal viability with and without drug; viability with doxorubicin, vs NT1 = 0.71; viability without drug, vs NT1 = 0.9; Outcome = inactive
Ncbp2 #2: combined effect class = normal viability with and without drug; viability with doxorubicin, vs NT1 = 0.94; viability without drug, vs NT1 = 0.92; Outcome = inactive
Ncbp2 #3: combined effect class = normal viability with and without drug; viability with doxorubicin, vs NT1 = 0.92; viability without drug, vs NT1 = 1.04; Outcome = inactive
Ncbp2 #4: combined effect class = normal viability with and without drug; viability with doxorubicin, vs NT1 = 0.74; viability without drug, vs NT1 = 0.91; Outcome = inactive
Cwc22 #1: combined effect class = normal viability with and without drug; viability with doxorubicin, vs NT1 = 0.92; viability without drug, vs NT1 = 0.92; Outcome = inactive
Cwc22 #2: combined effect class = normal viability with and without drug; viability with doxorubicin, vs NT1 = 0.8; viability without drug, vs NT1 = 0.8; Outcome = inactive
Cwc22 #3: combined effect class = normal viability with and without drug; viability with doxorubicin, vs NT1 = 0.85; viability without drug, vs NT1 = 0.92; Outcome = inactive
Cwc22 #4: combined effect class = low viability only with doxorubicin; normal without drug; viability with doxorubicin, vs NT1 = 0.48; viability without drug, vs NT1 = 0.83; Outcome = active
Supt16 #1: combined effect class = normal viability with and without drug; viability with doxorubicin, vs NT1 = 0.85; viability without drug, vs NT1 = 0.88; Outcome = inactive
Supt16 #2: combined effect class = normal viability with and without drug; viability with doxorubicin, vs NT1 = 0.78; viability without drug, vs NT1 = 0.91; Outcome = inactive
Supt16 #3: combined effect class = low viability only with doxorubicin; normal without drug; viability with doxorubicin, vs NT1 = 0.56; viability without drug, vs NT1 = 0.82; Outcome = active
Supt16 #4: combined effect class = low viability only with doxorubicin; normal without drug; viability with doxorubicin, vs NT1 = 0.67; viability without drug, vs NT1 = 0.94; Outcome = active

Copied from the list.
Under “viability without drug, vs NT1”, Supt16 #2 has 0.91
Supt16 #3, Outcome → active
For “combined effect class”, Dhx15 #4 shows normal viability with and without drug

Additional entries follow:
Ap5z1 #1: combined effect class = normal viability with and without drug; viability with doxorubicin, vs NT1 = 0.83; viability without drug, vs NT1 = 0.99; Outcome = inactive
Ap5z1 #2: combined effect class = low viability only with doxorubicin; normal without drug; viability with doxorubicin, vs NT1 = 0.53; viability without drug, vs NT1 = 0.84; Outcome = active
Ap5z1 #3: combined effect class = normal viability with and without drug; viability with doxorubicin, vs NT1 = 0.98; viability without drug, vs NT1 = 0.94; Outcome = inactive
Ap5z1 #4: combined effect class = normal viability with and without drug; viability with doxorubicin, vs NT1 = 1.04; viability without drug, vs NT1 = 1.06; Outcome = inactive
Mrpl38 #1: combined effect class = high viability only with doxorubicin; viability with doxorubicin, vs NT1 = 1.12; viability without drug, vs NT1 = 0.98; Outcome = inactive
Mrpl38 #2: combined effect class = normal viability with and without drug; viability with doxorubicin, vs NT1 = 1; viability without drug, vs NT1 = 1.02; Outcome = inactive
Mrpl38 #3: combined effect class = normal viability with and without drug; viability with doxorubicin, vs NT1 = 1; viability without drug, vs NT1 = 0.96; Outcome = inactive
Mrpl38 #4: combined effect class = normal viability with and without drug; viability with doxorubicin, vs NT1 = 1.08; viability without drug, vs NT1 = 0.99; Outcome = inactive
